Experimental data taken from PMC4022726.
Results are given in words; binding and its absence hold for the method and conditions named. In cells and extracts the contact can be indirect. Some results given as binding are weak or reduced against the parent protein; the word gives no strength.

Sequences of proteins named here, by UniProt entry; tags and fusion partners are left off. A change or cut given only in a name is not applied to a line headed by its entry.
UniProt Q9IH62: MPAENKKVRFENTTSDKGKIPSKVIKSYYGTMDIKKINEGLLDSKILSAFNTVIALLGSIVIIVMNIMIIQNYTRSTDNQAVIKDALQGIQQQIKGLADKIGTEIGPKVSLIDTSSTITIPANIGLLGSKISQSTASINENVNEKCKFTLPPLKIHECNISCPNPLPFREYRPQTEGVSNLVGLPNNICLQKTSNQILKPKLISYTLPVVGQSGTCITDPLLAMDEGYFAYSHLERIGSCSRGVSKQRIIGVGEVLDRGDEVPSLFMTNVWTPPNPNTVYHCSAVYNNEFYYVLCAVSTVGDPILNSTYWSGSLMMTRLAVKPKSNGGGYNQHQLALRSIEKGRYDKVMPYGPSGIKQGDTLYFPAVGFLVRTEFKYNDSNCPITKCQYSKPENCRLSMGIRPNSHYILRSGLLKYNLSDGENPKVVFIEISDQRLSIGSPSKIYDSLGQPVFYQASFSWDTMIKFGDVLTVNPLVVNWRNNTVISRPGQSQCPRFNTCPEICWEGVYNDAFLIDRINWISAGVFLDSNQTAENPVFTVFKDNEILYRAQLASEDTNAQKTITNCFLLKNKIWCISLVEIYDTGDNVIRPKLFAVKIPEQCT
UniProt Q9IH63: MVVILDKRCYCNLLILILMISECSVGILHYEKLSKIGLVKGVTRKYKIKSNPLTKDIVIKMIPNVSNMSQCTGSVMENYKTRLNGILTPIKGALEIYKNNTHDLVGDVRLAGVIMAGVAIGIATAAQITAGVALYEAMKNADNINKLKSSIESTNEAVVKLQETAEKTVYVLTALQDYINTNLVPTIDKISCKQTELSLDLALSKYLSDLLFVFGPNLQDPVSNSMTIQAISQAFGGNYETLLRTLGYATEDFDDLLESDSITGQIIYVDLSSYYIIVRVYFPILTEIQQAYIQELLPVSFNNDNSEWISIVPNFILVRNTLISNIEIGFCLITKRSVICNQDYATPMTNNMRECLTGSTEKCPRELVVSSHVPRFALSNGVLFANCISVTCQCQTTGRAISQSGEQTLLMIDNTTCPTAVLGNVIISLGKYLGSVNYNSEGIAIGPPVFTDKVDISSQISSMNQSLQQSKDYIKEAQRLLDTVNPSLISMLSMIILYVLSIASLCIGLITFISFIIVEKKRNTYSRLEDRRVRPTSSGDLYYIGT

Molecular target: NiV-G-HA (Nipah virus) (UniProt Q9IH62)
Assay: co-IP

**Q.** For “NiV-F-GFP, cleaved F1 (fusion-active) form (from UniProt Q9IH63)”, which binding is on record?
**A.** binds
